Experimental data reported in publication PMC7564595.

Chains of the proteins cited; added tags and fusions are not shown. Lines headed by an entry give the natural chain unless they say otherwise; changes in a name come on top.
UniProt P23258: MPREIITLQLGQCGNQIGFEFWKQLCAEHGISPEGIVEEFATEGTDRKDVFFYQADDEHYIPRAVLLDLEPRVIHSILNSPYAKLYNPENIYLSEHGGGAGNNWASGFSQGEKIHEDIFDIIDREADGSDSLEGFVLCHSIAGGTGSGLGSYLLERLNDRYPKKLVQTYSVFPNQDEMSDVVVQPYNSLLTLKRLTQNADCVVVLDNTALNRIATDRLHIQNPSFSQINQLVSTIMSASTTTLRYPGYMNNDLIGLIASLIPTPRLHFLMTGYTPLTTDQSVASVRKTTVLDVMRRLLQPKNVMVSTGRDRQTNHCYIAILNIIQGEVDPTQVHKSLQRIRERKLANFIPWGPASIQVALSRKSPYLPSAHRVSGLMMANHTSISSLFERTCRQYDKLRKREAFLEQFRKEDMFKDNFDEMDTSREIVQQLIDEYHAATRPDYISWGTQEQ

T1: SIRT4-eGFP (human) (UniProt Q9Y6E7)
T1 sequence: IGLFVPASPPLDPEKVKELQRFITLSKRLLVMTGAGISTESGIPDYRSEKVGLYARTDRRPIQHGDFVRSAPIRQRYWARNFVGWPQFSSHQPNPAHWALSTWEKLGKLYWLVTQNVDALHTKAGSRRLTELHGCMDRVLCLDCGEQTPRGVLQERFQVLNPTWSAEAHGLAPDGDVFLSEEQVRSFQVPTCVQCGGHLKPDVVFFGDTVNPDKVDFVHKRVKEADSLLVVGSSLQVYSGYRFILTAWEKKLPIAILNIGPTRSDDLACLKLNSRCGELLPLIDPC


What was measured:
SIRT4-eGFP (human) = target: T1, SIRT4-eGFP (human); assay: co-IP; anti-eGFP nanobody co-immunoprecipitation from total cell lysates (0.3% CHAPS lysis buffer) of mitotically synchronized HEK293 cells expressing SIRT4-eGFP or eGFP; immunoblot
[1] = target: α-tubulin (human (endogenous in HEK293)); assay: co-IP; immunoprecipitation with rabbit anti-α-tubulin antibody (ab52899) and Protein A/G Sepharose from total cell lysates (0.3% CHAPS) of stably transfected HEK293 cells; control without antibody
[2] = target: Taxol-stabilized microtubules (human (endogenous in HEK293)); assay: co-sedimentation; Taxol-stabilized microtubules (1 mM GTP, 20 µM Paclitaxel, 30 min at room temperature) pelleted from the cytosolic fraction of asynchronously growing HEK293 cells through 15% sucrose in PHEM buffer pH 6.8; immunoblot of supernatant and pellet

Row | binding (SIRT4-eGFP (human)) | binding [1] | binding [2] | Molecule
1 | binds | – | – | γ-tubulin (from UniProt P23258)
2 | binds | – | – | β-tubulin (human (endogenous in HEK293))
3 | binds | – | – | α-tubulin (human (endogenous in HEK293))
4 | – | binds | binds | SIRT4-eGFP (protein, UniProt Q9Y6E7 29-314) IGLFVPASPPLDPEKVKELQRFITLSKRLLVMTGAGISTESGIPDYRSEKVGLYARTDRRPIQHGDFVRSAPIRQRYWARNFVGWPQFSSHQPNPAHWALSTWEKLGKLYWLVTQNVDALHTKAGSRRLTELHGCMDRVLCLDCGEQTPRGVLQERFQVLNPTWSAEAHGLAPDGDVFLSEEQVRSFQVPTCVQCGGHLKPDVVFFGDTVNPDKVDFVHKRVKEADSLLVVGSSLQVYSGYRFILTAWEKKLPIAILNIGPTRSDDLACLKLNSRCGELLPLIDPC

These are yes or no findings as the source states them, for the method shown. Binding seen in cells or lysates may run through a third protein. A result given as binding can be weak or reduced; the word gives no strength. Where a sequence is shown, tags or fusion partners need not be part of it.
